Measurements reported in the supplement of paper PMC6331611.
Values joined by “and” are separate entries in the source; they are usually repeats but may differ in a detail not shown here. Equal entries are not always repeated. ± gives the standard deviation of the averaged measurements. Over roughly 1,600 compounds, “normalized growth (OD600, IQM-normalized) in LPM” has its median near 1; the lowest 2% begin near 0.014. This is one part of the list.

The compounds below were run on Salmonella enterica serovar Typhimurium SL1344 (assay: normalized growth (OD600, IQM-normalized) in LPM (fraction of plate interquartile mean); higher = more bacterial growth (less inhibition)). Conditions: LPM pH 5.8; 10 µM; 16 h.

SMILES | normalized growth
COC(=O)C1=C(C)NC(C)=C(C(=O)OC(C)C)C1c1cccc2nonc12 (centres undefined) | 1.16 ± 0.2
CC(=O)SCC(Cc1ccccc1)C(=O)NCC(=O)OCc1ccccc1 (centres undefined) | 1 ± 0.047
CC1COc2c(N3CCN(C)CC3)c(F)cc3c(=O)c(C(=O)O)cn1c23 (centres undefined) | 0.0109 ± 0.00084
O=C(O)CCCC[C@@H]1SC[C@@H]2NC(=O)N[C@@H]21 | 0.999 ± 0.031
CN1CCN(c2cc3c(cc2F)c(=O)c(C(=O)O)cn3-c2ccc(F)cc2)CC1 | 0.0108 ± 0.00018
C#CCN(C)CCCOc1ccc(Cl)cc1Cl | 0.933 ± 0.04
O=C(O)CN(CCN(CC(=O)O)CC(=O)O)CCN(CC(=O)O)CC(=O)O | 0.0445 ± 0.029
CC(C)NCC(O)c1cc(O)cc(O)c1 (centres undefined) | 1.13 ± 0.082
CCN(CC)Cc1cc(Nc2ccnc3cc(Cl)ccc23)ccc1O | 0.991 ± 0.09
CCC(=O)OCC(=O)[C@@]1(OC(=O)CC)[C@@H](C)C[C@H]2[C@@H]3CCC4=CC(=O)C=C[C@]4(C)[C@@]3(Cl)[C@@H](O)C[C@@]21C | 0.95 ± 0.053
O=C(/C=C/C=C/c1ccc2c(c1)OCO2)N1CCCCC1 | 1.151 ± 0.0046
COc1ccccc1N1CCN(CCCNc2cc(=O)n(C)c(=O)n2C)CC1 | 1.08 ± 0.035
O=C1CCC(N2C(=O)c3ccccc3C2=O)C(=O)N1 (centres undefined) | 1.08 ± 0.041
C=CCCCCCCCCC(=O)O | 1.01 ± 0.038
CCCCc1nc(Cl)c(CO)n1Cc1ccc(-c2ccccc2-c2nnn[nH]2)cc1 | 0.945 ± 0.033
CC1(C)S[C@@H]2[C@H](NC(=O)Cc3ccccc3)C(=O)N2[C@H]1C(=O)O | 1.01 ± 0.061
CC(=O)OCC1=C(C(=O)O)N2C(=O)[C@@H](NC(=O)Cc3cccs3)[C@H]2SC1 | 1.01 ± 0.054
CCOc1ccc(NC(=O)CC(C)O)cc1 (centres undefined) | 1.02 ± 0.021
Cc1nc2n(c(=O)c1CCN1CCC(c3noc4cc(F)ccc34)CC1)CCCC2O (centres undefined) | 1.02 ± 0.079
CCN(CC)CCNC(=O)COc1ccc(OC)cc1 | 0.869 ± 0.0096
CC(N)C(=O)OC(C)(C)Cc1ccc(Cl)cc1 (centres undefined) | 0.917 ± 0.1
C[C@H]1[C@H](OC(=O)CCC(=O)O)O[C@@H]2O[C@@]3(C)CC[C@H]4[C@H](C)CC[C@@H]1[C@@]24OO3 | 0.951 ± 0.049

SMILES | normalized growth
C[n+]1ccccc1/C=N/O | 0.929 ± 0.036
CCC(C)n1ncn(-c2ccc(N3CCN(c4ccc(OCC5COC(Cn6cncn6)(c6ccc(Cl)cc6Cl)O5)cc4)CC3)cc2)c1=O (centres undefined) | 1.01 ± 0.028
Cc1cccc(Nc2ccccc2C(=O)O)c1C | 1.03 ± 0.07
O=C(O)CCNC(=O)c1ccc(/N=N/c2ccc(O)c(C(=O)O)c2)cc1 | 1 ± 0.051
CNCCCN1c2ccccc2CCc2ccccc21 | 1.05 ± 0.015
O=C1OC(CN2CCOCC2)CN1/N=C/c1ccc([N+](=O)[O-])o1 (centres undefined) | 0.957 ± 0.062
CC[n+]1c(-c2ccccc2)c2cc(N)ccc2c2ccc(N)cc21 | 0.808 ± 0.014
COC(=O)C1=C(C)NC(C)=C(C(=O)OCC(C)C)C1c1ccccc1[N+](=O)[O-] (centres undefined) | 0.401 ± 0.024
CN1CCN(c2c(F)cc3c(=O)c(C(=O)O)cn4c3c2SCC4)CC1 | 0.02519 ± 0.00023
COC(=O)C1=C(C)NC(C)=C(C(=O)OCCN(C)Cc2ccccc2)C1c1cccc([N+](=O)[O-])c1 (centres undefined) | 0.976 ± 0.055
Cc1ccccc1C(OCCN(C)C)c1ccccc1 (centres undefined) | 0.94 ± 0.048
O=C1C(O)=C([C@H]2CC[C@H](c3ccc(Cl)cc3)CC2)C(=O)c2ccccc21 | 1.047 ± 0.0079
COc1c2ccoc2cc2oc(=O)ccc12 | 1.11 ± 0.064
NC(=O)NC1NC(=O)NC1=O (centres undefined) | 0.986 ± 0.053
O=C1CCc2ccc(OCCCCN3CCN(c4cccc(Cl)c4Cl)CC3)cc2N1 | 1.04 ± 0.03
CN(C)CCOC(c1ccc(Cl)cc1)c1ccccn1 (centres undefined) | 1.04 ± 0.035
CCCCCOC(=O)Nc1nc(=O)n([C@@H]2O[C@H](C)[C@@H](O)[C@H]2O)cc1F | 1.36 ± 0.17
CCCCNc1ccc(C(=O)OCCN(C)C)cc1 | 1.06 ± 0.023
CCN(CC)CCOc1ccc(C(=C(Cl)c2ccccc2)c2ccccc2)cc1 | 1.07 ± 0.023
CN1CCC(=C2c3ccccc3CCc3sccc32)CC1 | 1.02 ± 0.019
CN1CCOC(c2ccccc2)c2ccccc2C1 (centres undefined) | 1.28 ± 0.087
O=C1[C@H](CC[C@H](O)c2ccc(F)cc2)[C@@H](c2ccc(O)cc2)N1c1ccc(F)cc1 | 1.09 ± 0.1

SMILES | normalized growth
O=S(=O)(O)c1cc(I)c(O)c2ncccc12 | 0.986 ± 0.052
Cc1cnc(C(=O)NCCc2ccc(S(=O)(=O)NC(=O)NC3CCCCC3)cc2)cn1 | 0.979 ± 0.059
O=C(O)COCCN1CCN([C@H](c2ccccc2)c2ccc(Cl)cc2)CC1 | 0.951 ± 0.031
CC(O)(P(=O)(O)O)P(=O)(O)O | 1.09 ± 0.045
CCC1NC(=O)c2cc(S(N)(=O)=O)c(Cl)cc2N1 (centres undefined) | 0.932 ± 0.036
CC(C)Cc1ccc(C(C)C(=O)O)cc1 (centres undefined) | 0.861 ± 0.032
COc1ccc(CN2CCN(C(c3ccc(F)cc3)c3ccc(F)cc3)CC2)c(OC)c1OC | 0.926 ± 0.07
OCc1ccccn1 | 0.99 ± 0.079
COCCc1ccc(OCC(O)CNC(C)C)cc1 (centres undefined) | 1.14 ± 0.11
Nc1nc2[nH]cc(CCc3ccc(C(=O)N[C@@H](CCC(=O)O)C(=O)O)cc3)c2c(=O)[nH]1 | 1.03 ± 0.04
CC(C)(C)NC[C@H](O)COc1ccccc1C1CCCC1 | 1.05 ± 0.017
COc1ccc(C(=O)c2ccccc2O)c(O)c1 | 1 ± 0.027
Cc1ncc(COP(=O)([O-])[O-])c(CN(CCN(CC(=O)O)Cc2c(COP(=O)([O-])O)cnc(C)c2O)CC(=O)O)c1O.[Mn].[Na+].[Na+].[Na+] | 1.04 ± 0.03
CC1=C(C/C=C(\C)CCC[C@H](C)CCC[C@H](C)CCCC(C)C)C(=O)c2ccccc2C1=O | 1.02 ± 0.063
O=C(O)C1(C(=O)O)CCC1.[NH2-].[NH2-].[Pt+2] | 0.471 ± 0.4
Cc1cnc(C(=O)O)c[n+]1[O-] | 0.993 ± 0.078
CC(=O)Nc1cccc(O)c1 | 1.02 ± 0.014
CC/C(=C(\c1ccccc1)c1ccc(OCCN(C)C)cc1)c1ccccc1 | 1.12 ± 0.05
CCc1oc2ccccc2c1C(=O)c1cc(Br)c(O)c(Br)c1 | 1 ± 0.018
NCc1ccc(S(N)(=O)=O)cc1 | 1.94 ± 0.42
CN[C@@H]1[C@H](O[C@H]2[C@H](O[C@H]3[C@H](O)[C@@H](O)[C@H](NC(=N)N)[C@@H](O)[C@@H]3NC(=N)N)O[C@@H](C)[C@]2(O)CO)O[C@@H](CO)[C@H](O)[C@H]1O | 0.952 ± 0.011
CC[N+](CC)(CC)CCOc1cccc(OCC[N+](CC)(CC)CC)c1OCC[N+](CC)(CC)CC | 1.04 ± 0.041

SMILES | normalized growth
CCOC(=O)[N-]c1c[n+](N2CCOCC2)no1 | 0.972 ± 0.073
CC(C)(C)NCC(O)c1cc(O)cc(O)c1 (centres undefined) | 1.07 ± 0.017
C#C[C@]1(O)CC[C@H]2[C@@H]3CCC4=C(CCC(=O)C4)[C@H]3CC[C@@]21C | 0.956 ± 0.026
COc1cc2ncnc(Nc3ccc(F)c(Cl)c3)c2cc1OCCCN1CCOCC1 | 1.21 ± 0.16
CCOc1ccc(NC(C)=O)cc1 | 0.947 ± 0.028
CN1CCC[C@@H]1CCO[C@](C)(c1ccccc1)c1ccc(Cl)cc1 | 1.02 ± 0.026
O=C(O)c1ccccc1 | 1.02 ± 0.045
CC(=O)Nc1ccc(C(=O)O)cc1 | 1.01 ± 0.14
OC(CCN1CCCCC1)(c1ccccc1)C1CCCCC1 (centres undefined) | 0.942 ± 0.093
N=C(N)N/N=C/c1c(Cl)cccc1Cl | 1.02 ± 0.021
Cc1ccc2c(Cl)cc(Cl)c(O)c2n1 | 0.917 ± 0.023
CCCc1nc(C(C)(C)O)c(C(=O)O)n1Cc1ccc(-c2ccccc2-c2nnn[nH]2)cc1 | 1.03 ± 0.1
O=C(OCc1ccccc1)c1ccccc1 | 1.09 ± 0.044
CN(C)CCOC(=O)COc1ccc(Cl)cc1 | 1.01 ± 0.03
COC(=O)C(N)CS (centres undefined) | 0.992 ± 0.042
CC(N)C12CC3CC(CC(C3)C1)C2 (centres undefined) | 1.35 ± 0.31
Nc1cc(-c2ccncc2)c[nH]c1=O | 0.687 ± 0.051
CN(CCOc1ccc(CC2SC(=O)NC2=O)cc1)c1ccccn1 (centres undefined) | 0.881 ± 0.024
CN(C)CC[C@@H](c1ccc(Cl)cc1)c1ccccn1 | 1.05 and 1.01
NC(N)=O | 0.954 ± 0.11
Cn1c([N+](=O)[O-])cnc1COC(N)=O | 0.794 ± 0.08
CN(C)[C@@H]1C(O)=C(C(N)=O)C(=O)[C@@]2(O)C(O)=C3C(=O)c4c(O)ccc(Cl)c4[C@@H](O)[C@H]3C[C@@H]12 | 0.00865 ± 0.00039

SMILES | normalized growth
OC[C@H]1O[C@@H](O[C@@H]2[C@@H](CO)OC(O)(CO)[C@H]2O)[C@H](O)[C@@H](O)[C@H]1O (mixture of isomers) | 1.05 ± 0.039
CC(Oc1ccccc1)C(=O)N[C@@H]1C(=O)N2[C@@H]1SC(C)(C)[C@@H]2C(=O)O (some centres undefined) | 1.13 ± 0.082
COc1ccc(-c2cc(C(F)F)nn2-c2ccc(S(N)(=O)=O)cc2)cc1F | 1.01 ± 0.035
N[C@@H](C(=O)N[C@@H]1C(=O)N2C(C(=O)O)=C(Cl)CS[C@H]12)c1ccccc1 | 0.999 ± 0.021
COc1ccc(C(=O)NCc2ccc(OCCN(C)C)cc2)cc1OC | 1.01 ± 0.038
Cn1nnnc1SCC1=C(C(=O)O)N2C(=O)[C@@H](NC(=O)[C@H](OC=O)c3ccccc3)[C@H]2SC1 | 1.17 ± 0.12
CCOC(=O)[C@H](CCc1ccccc1)N[C@@H](C)C(=O)N1CCC[C@H]1C(=O)O | 0.901 ± 0.13
CO/N=C(\C(=O)N[C@@H]1C(=O)N2C(C(=O)O)=C(C[N+]3(C)CCCC3)CS[C@H]12)c1csc(N)n1 | 0.0232 ± 0.0056
CCCCC(=O)O[C@]1(C(=O)CO)CC[C@H]2[C@@H]3CCC4=CC(=O)CC[C@]4(C)[C@H]3[C@@H](O)C[C@@]21C | 1.09 ± 0.044
CCc1cccc2c3c([nH]c12)C(CC)(CC(=O)O)OCC3 (centres undefined) | 1.1 ± 0.028
Cc1noc(NS(=O)(=O)c2ccc(N)cc2)c1C | 1.06 ± 0.073
CC1=C(CC(=O)O)c2cc(F)ccc2/C1=C\c1ccc([S+](C)[O-])cc1 (centres undefined) | 1.06 ± 0.016
CC(Oc1c(Cl)cccc1Cl)C1=NCCN1 (centres undefined) | 0.865 ± 0.015
CC(C)COC(=O)c1ccc(N)cc1 | 0.871 ± 0.03
Cc1ccccc1N1C(=O)c2cc(S(N)(=O)=O)c(Cl)cc2NC1C (centres undefined) | 1.15 ± 0.071
Cc1cc(-n2c(=O)[nH]c(=O)n(C)c2=O)ccc1Oc1ccc(SC(F)(F)F)cc1 | 0.973 ± 0.019
OCCOCCN1CCN(C(c2ccccc2)c2ccc(Cl)cc2)CC1 (centres undefined) | 0.986 ± 0.014
O=S(=O)(O)CCCS(=O)(=O)O | 1.02 ± 0.042
CC(=O)Nc1ccc(O)cc1 | 0.903 ± 0.072
CCCCC(CC)CN=C(N)N=C(N)NCCCCCCNC(N)=NC(N)=NCC(CC)CCCC (centres undefined) | 0.929 ± 0.026
COc1ccc2[nH]c([S+]([O-])Cc3ncc(C)c(OC)c3C)nc2c1 (centres undefined) | 1.13 ± 0.048
